Assay results: publication PMC8935240
No constants are given. Whether binding was seen depends on the method and setting. In cells and extracts the contact can be indirect. Some binding calls cover weakened binding; strength is not graded here.

Sequences of proteins named here, by UniProt entry; tags and fusion partners are left off.
UniProt Q13887: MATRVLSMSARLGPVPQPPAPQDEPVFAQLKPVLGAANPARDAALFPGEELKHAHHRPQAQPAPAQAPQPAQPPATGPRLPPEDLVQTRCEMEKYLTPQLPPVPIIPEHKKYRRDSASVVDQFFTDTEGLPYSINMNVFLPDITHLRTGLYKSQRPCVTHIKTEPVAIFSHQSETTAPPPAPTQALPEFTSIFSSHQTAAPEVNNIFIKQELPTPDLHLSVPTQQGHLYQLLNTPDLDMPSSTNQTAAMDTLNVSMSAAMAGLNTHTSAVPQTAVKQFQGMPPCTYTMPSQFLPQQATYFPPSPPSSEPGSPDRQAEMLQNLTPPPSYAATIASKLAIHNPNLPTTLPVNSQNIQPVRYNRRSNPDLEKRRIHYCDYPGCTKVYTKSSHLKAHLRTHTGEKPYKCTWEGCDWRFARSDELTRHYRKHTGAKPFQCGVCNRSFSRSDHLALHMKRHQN
UniProt Q92560: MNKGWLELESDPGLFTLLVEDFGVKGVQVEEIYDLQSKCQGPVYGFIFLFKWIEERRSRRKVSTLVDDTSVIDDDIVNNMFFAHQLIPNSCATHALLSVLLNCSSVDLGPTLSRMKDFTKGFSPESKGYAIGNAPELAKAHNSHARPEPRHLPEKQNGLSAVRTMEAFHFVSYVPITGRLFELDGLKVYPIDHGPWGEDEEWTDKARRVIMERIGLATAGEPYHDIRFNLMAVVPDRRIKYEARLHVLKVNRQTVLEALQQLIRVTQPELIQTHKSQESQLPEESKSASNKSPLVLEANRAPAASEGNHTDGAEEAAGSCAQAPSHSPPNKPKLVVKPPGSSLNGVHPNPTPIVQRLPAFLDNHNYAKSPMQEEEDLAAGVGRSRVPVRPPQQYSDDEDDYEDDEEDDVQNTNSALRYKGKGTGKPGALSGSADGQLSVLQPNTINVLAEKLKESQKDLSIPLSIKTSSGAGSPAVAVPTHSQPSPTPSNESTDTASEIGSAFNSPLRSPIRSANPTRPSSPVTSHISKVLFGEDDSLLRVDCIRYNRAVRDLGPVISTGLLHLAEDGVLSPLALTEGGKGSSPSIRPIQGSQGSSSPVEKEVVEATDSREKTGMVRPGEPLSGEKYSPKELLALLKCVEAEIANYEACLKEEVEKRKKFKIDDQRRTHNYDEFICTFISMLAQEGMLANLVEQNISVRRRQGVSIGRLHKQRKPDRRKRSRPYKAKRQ

Key:
[1] = target: KLF5-3×Flag (wild type) (human) (UniProt Q13887); assay: co-IP; KLF5-3×Flag or KLF5-K369Q-3×Flag co-expressed with BAP1 in HEK293T cells; KLF5-3×Flag proteins immunoprecipitated with anti-Flag-M2 beads; Western blotting
3×Flag-BAP1 = 3×Flag-BAP1 (UniProt Q92560); assay: co-IP; KLF5 or KLF5-K369Q co-expressed with 3×Flag-BAP1 in HEK293T cells; 3×Flag-BAP1 immunoprecipitated with anti-Flag-M2 beads; Western blotting

binding [1]	binding (3×Flag-BAP1)	Substance
binds		BAP1, untagged (from UniProt Q92560 1-729) (enzyme)
	binds	wild-type human KLF5 (Krüppel-like factor 5), untagged (from UniProt Q13887 1-457)
